Reference: PubChem BioAssay AID1259254 (NCATS, 2017)

Test: 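Genome-wide screen for genes that prevent DNA re-replication in cancer cells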 (primary screen)
System: human HCT116 colorectal cancer cells
Reagents: single siRNA against human genes
Time to read-out: 3 days
Measured: 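Nuclei stained with Hoechst and imaged; cell-cycle phase assigned by DNA content; G2 share scaled per plate, non-targeting siRNA 0%, GMNN siRNA 100%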
Direction: G2 robust z-score and G2 cells, % of GMNN control: higher = more G2 cells, more excess DNA replication
Rule for the call: 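Active siRNAs have a G2 robust z of 5 or more median absolute deviations over the median, which in these data means about 38% or higher of GMNN control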
Shown is a random part of about 59,000 reagents tested. About 1,550 of them (2.6%) count as active. 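G2 share is only a proxy for re-replication; each gene was hit by three separate siRNAs, and active genes were retested.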 Unmarked entries are inactive. The numbers tell different reagents against one gene apart. Not all columns of the deposit are shown. No sequences are given here. The record does not give: the amount of reagent.

target	reagent	G2 robust z-score	G2 cells, % of GMNN control
LINC01567	1	0.512	6.57
LINC01567	2	-0.742	-2.26
LINC01567	3	1.81	15.7
ARMCX3	1	0.628	7.38
ARMCX3	2	0.234	4.61
ARMCX3	3	2.94	23.7
BCRP3	1	0.747	8.22
BCRP3	2	0.0324	3.2
BCRP3	3	1.69	14.8
KYAT1	1	2.04	17.3
KYAT1	2	-0.612	-1.34
KYAT1	3	3.27	26
TACC2	1	0.928	9.49
TACC2	2	0.638	7.46
TACC2	3	0.635	7.44
LIN52	1	2.03	17.2
LIN52	2	0.15	4.02
LIN52	3	1.29	12.1
SH3TC2-DT	1	-0.516	-0.66
SH3TC2-DT	2	1.79	15.5
SH3TC2-DT	3	0.178	4.22
SH3TC2-DT	4	-0.388	0.239
SH3TC2-DT	5	0.393	5.73
SH3TC2-DT	6	0.827	8.79
ACAD11	1	-0.957	-3.76
ACAD11	2	-0.237	1.3
ACAD11	3	0.0409	3.26
CSF1R	1	-1.25	-5.85
CSF1R	2	0.251	4.73
CSF1R	3	-0.377	0.318
SRP72	1	0.739	8.17
SRP72	2	-0.521	-0.7
SRP72	3	1.82	15.8
COX4I1	1	0.376	5.62
COX4I1	2	0.0177	3.09
COX4I1	3	-0.545	-0.866
TREML1	1	1.52	13.6
TREML1	2	0.478	6.33
TREML1	3	-0.0973	2.28
UBAC2	1	-0.119	2.13
UBAC2	2	1.58	14.1
UBAC2	3	-0.0642	2.52
TNFSF13B	1	-1.15	-5.11
TNFSF13B	2	0.191	4.31
TNFSF13B	3	0.838	8.86
TSC22D2	1	-0.198	1.57
TSC22D2	2	0.571	6.98
TSC22D2	3	0.168	4.15
KDM3A	1	-0.0467	2.64
KDM3A	2	-0.76	-2.38
KDM3A	3	0.48	6.35
ALOX15	1	-1.08	-4.62
ALOX15	2	-0.953	-3.74
ALOX15	3	-1.08	-4.66
TPO	1	-0.823	-2.82
TPO	2	-0.537	-0.814
TPO	3	0.43	5.99

5 entries from above, arranged by “G2 robust z-score”, highest first.
target	reagent	G2 robust z-score	G2 cells, % of GMNN control
SH3TC2-DT	2	1.79	15.5
LIN52	3	1.29	12.1
SH3TC2-DT	3	0.178	4.22
LIN52	2	0.15	4.02
SH3TC2-DT	1	-0.516	-0.66

The results go on:
target	reagent	G2 robust z-score	G2 cells, % of GMNN control
AURKB	1	13.6 (active)	98.4
AURKB	2	9.73 (active)	71.4
AURKB	3	5.77 (active)	43.6
PRODH	1	-0.434	-0.0847
PRODH	2	2.41	19.9
PRODH	3	-0.271	1.06
DHCR24	1	-0.732	-2.19
DHCR24	2	-1.4	-6.88
DHCR24	3	0.0824	3.55
THAP11	1	2.31	19.2
THAP11	2	-0.506	-0.592
THAP11	3	-0.185	1.67
PRY	1	1.24	11.7
PRY	2	-0.932	-3.59
PRY	3	-0.939	-3.64
HOXC13	1	2.96	23.8
HOXC13	2	-0.411	0.0761
HOXC13	3	0.693	7.84
C5orf47	1	-0.281	0.989
C5orf47	2	0.908	9.35
C5orf47	3	1.74	15.2
PLCH2	1	1.3	12.1
PLCH2	2	-0.705	-1.99
PLCH2	3	0.336	5.33
LOC729088 (retired record)	1	1.45	13.1
LOC729088 (retired record)	2	0.00908	3.03
LOC729088 (retired record)	3	-0.642	-1.55
AGAP1	1	0.909	9.36
AGAP1	2	-0.312	0.773
AGAP1	3	-0.338	0.588
